Values from PubChem BioAssay AID743121 (NCATS, 2013).

Screen: 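Genes whose silencing strengthens cell killing by camptothecin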 (primary screen)
Cell system: MDA-MB-231 cells, a human breast cancer line
Knock-down reagent: single siRNA against human genes, 20 nM siRNA (0.8 pmol per well)
Duration: 120 h (drug added 48 h after transfection, read 72 h later)
Conditions: camptothecin 20 nM (about EC30) for 72 h; vehicle 0.1% DMSO in parallel plates
Measurement: 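CellTiter-Glo ATP signal, scaled to control siRNA as percent viability; sensitisation given as log2 of untreated divided by camptothecin-treated viability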
Reading the numbers: log2 vehicle/camptothecin viability: higher = stronger sensitisation to camptothecin; viability with camptothecin and viability without drug: higher = more viable cells
Rule for the call: 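Each gene scored by redundant siRNA activity (RSA) over its individual siRNA ratios; a gene is called active at p < 0.001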
Shown is one part, drawn at random, of about 26,000 reagents tested. 167 of them (0.63%) were called active. 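Calls are per gene from RSA p-values that are not deposited; an individual active-marked siRNA can sensitise only weakly.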

| log2 vehicle/camptothecin viability | viability with camptothecin (% of control) | viability without drug (% of control) | Outcome | target gene | PubChem SID |
| --- | --- | --- | --- | --- | --- |
| -0.154 | 80.6 | 72.5 | inactive | HCN2 | SID164355183 |
| -0.075 | 49.8 | 47.3 | inactive | HCN2 | SID164355186 |
| -0.204 | 80.7 | 70.1 | inactive | HCN2 | SID164355188 |
| -0.0947 | 38.9 | 36.5 | inactive | HCN2 | SID174316063 |
| 0.0179 | 49.4 | 50 | inactive | KLC3 | SID164574605 |
| -0.00408 | 59.1 | 58.9 | inactive | KLC3 | SID164574607 |
| -0.281 | 113 | 93 | inactive | KLC3 | SID164574609 |
| -0.182 | 91 | 80.2 | inactive | KLC3 | SID164574610 |
| -0.471 | 57.9 | 41.8 | inactive | STC1 | SID164390130 |
| 0.718 | 47.1 | 77.5 | inactive | STC1 | SID164390131 |
| -0.141 | 132 | 119 | inactive | STC1 | SID164390132 |
| -0.14 | 101 | 91.4 | inactive | STC1 | SID164390133 |
| 0.0758 | 36.2 | 38.2 | inactive | DUSP8 | SID164362408 |
| -0.175 | 116 | 103 | inactive | DUSP8 | SID164362409 |
| -0.187 | 83.7 | 73.6 | inactive | DUSP8 | SID164362412 |
| -0.0538 | 105 | 101 | inactive | DUSP8 | SID164362413 |
| 0.251 | 56.4 | 67.2 | inactive | GAA | SID164365642 |
| -0.162 | 103 | 92.1 | inactive | GAA | SID164365643 |
| -0.177 | 72.8 | 64.4 | inactive | GAA | SID164365644 |
| -0.0458 | 106 | 103 | inactive | GAA | SID164365646 |
| -0.544 | 103 | 70.5 | inactive | GLP2R | SID164403160 |
| -0.356 | 82.7 | 64.6 | inactive | GLP2R | SID164403163 |
| 0.239 | 70.1 | 82.7 | inactive | GLP2R | SID164403165 |
| -0.175 | 98.5 | 87.3 | inactive | GLP2R | SID164403166 |
| 0.0772 | 86.3 | 91 | inactive | FLVCR1 | SID164464707 |
| -0.297 | 120 | 98.1 | inactive | FLVCR1 | SID164464709 |
| -0.399 | 79.6 | 60.4 | inactive | FLVCR1 | SID164464710 |
| -0.322 | 55.8 | 44.7 | inactive | SCN3B | SID164486909 |
| -0.264 | 63 | 52.5 | inactive | SCN3B | SID164486910 |
| 0.0549 | 98.5 | 102 | inactive | SCN3B | SID164486913 |
| -0.119 | 106 | 97.8 | inactive | SCN3B | SID164486915 |

Records listed so far whose target name starts with F or f (3):
| log2 vehicle/camptothecin viability | viability with camptothecin (% of control) | viability without drug (% of control) | Outcome | target gene | PubChem SID |
| --- | --- | --- | --- | --- | --- |
| 0.0772 | 86.3 | 91 | inactive | FLVCR1 | SID164464707 |
| -0.297 | 120 | 98.1 | inactive | FLVCR1 | SID164464709 |
| -0.399 | 79.6 | 60.4 | inactive | FLVCR1 | SID164464710 |
